{"sequences": {"note": "Chains of the proteins cited; added tags and fusions are not shown.", "UniProt P14416, whole entry, looked up": "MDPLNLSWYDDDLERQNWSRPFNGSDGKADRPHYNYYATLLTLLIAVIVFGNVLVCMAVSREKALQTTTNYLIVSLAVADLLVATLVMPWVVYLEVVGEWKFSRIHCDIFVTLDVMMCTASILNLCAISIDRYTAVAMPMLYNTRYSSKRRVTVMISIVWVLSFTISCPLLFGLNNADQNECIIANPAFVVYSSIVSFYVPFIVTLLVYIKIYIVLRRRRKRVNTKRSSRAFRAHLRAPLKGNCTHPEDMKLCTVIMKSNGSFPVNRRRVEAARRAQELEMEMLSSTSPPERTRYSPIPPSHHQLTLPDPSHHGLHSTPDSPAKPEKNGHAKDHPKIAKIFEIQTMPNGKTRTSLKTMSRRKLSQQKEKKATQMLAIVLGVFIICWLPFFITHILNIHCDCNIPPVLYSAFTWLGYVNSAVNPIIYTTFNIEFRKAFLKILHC"}, "source": "PubChem BioAssay (Tox21)", "key": {"[1]": {"target": "Beta-2 adrenergic receptor (Homo sapiens) (UniProt P07550)", "test": "Adrenergic beta2 receptor (ADRB2) small molecule antagonists, cell-based qHTS assay (AID 1963592); also: nearly all actives have a fitted effect of over 50% in size", "settings": "CHO-ADRB2 cells, isoproterenol-stimulated cAMP HTRF ratio, 0.5 h; activity change, negative = inhibition: at 92.4 µM (top of the series) unless noted", "how_it_was_run": "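Cells (CHO, stable ADRB2 overexpression) incubated 18-20hr at 37C; compounds added from DMSO; agonist mix (1nM isoproterenol, 100uM IBMX, 25uM Ro-20-1724) added; 0.5hr RT; d2-cAMP and anti-cAMP-cryptate added; 1hr RT; 665/615 nm read.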"}, "[2]": {"test": "cAMP Responsive Elements (CRE) small molecule antagonists, cell-based qHTS assay (AID 1963591; active = well fitted inhibition curve with a large enough effect in the signal ratio in the repeat runs, not every such curve was filed as active; inconclusive = weak or mixed curves, or effect the other way; the % refers to the signal ratio; also: potency is read from the fitted curve at half-maximal effect)", "settings": "CRE-bla HEK293T, beta-lactamase FRET ratio; activity change, negative = inhibition: at 92.4 µM (top of the series) unless noted", "how_it_was_run": "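qHTS in CRE-bla HEK 293T cells: compound in DMSO, then 0.25 uM NKH477 (final), 3 h at 37 °C/5% CO2; beta-lactamase FRET read-out after 2 h substrate incubation.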"}, "[3]": {"target": "Beta-2 adrenergic receptor (Homo sapiens) (UniProt P07550)", "test": "Adrenergic beta2 receptor (ADRB2) small molecule agonists, cell-based qHTS assay (AID 1963593); also: potency is read from the fitted curve at half-maximal effect;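 as to activation: CHO cells stably overexpressing human ADRB2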", "settings": "CHO-ADRB2 cells, cAMP HTRF, 30 min; activation: at 92.4 µM (top of the series) unless noted", "how_it_was_run": "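CHO cells stably over-expressing ADRB2 were plated overnight at 37C, then dosed with compounds plus a stimulation mix containing 100uM IBMX and 25uM Ro-20-1724 for 0.5hr at room temperature. cAMP was measured by HTRF competition, 1hr.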"}, "[4]": {"target": "D(2) dopamine receptor (Homo sapiens) (UniProt P14416)", "test": "Dopamine D2 receptor (DRD2) small molecule antagonists, cell-based qHTS assay (AID 1963595; active = well fitted inhibition curve with a large enough effect in the signal ratio in the repeat runs, with a control signal flat; inconclusive = weak or mixed curves, or effect the other way; the % refers to the signal ratio; also: potency is read from the fitted curve at half-maximal effect)", "settings": "HEK293-DRD2 cAMP HTRF antagonist mode; activity change, negative = inhibition: at 92.4 µM (top of the series) unless noted", "how_it_was_run": "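HEK293 cells stably expressing DRD2, preincubated with 0.1 mM Ro20-1724 and compounds 10 min, were stimulated with 200 nM NKH477 plus 12 nM quinpirole for 30 min at room temperature; cAMP measured by HTRF (665/620 nm).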"}, "[5]": {"target": "D(2) dopamine receptor (Homo sapiens) (UniProt P14416)", "test": "Dopamine D2 receptor (DRD2) small molecule agonists, cell-based qHTS assay (AID 1963594); also: nearly all actives have a fitted effect of over 35% in size; also: potency is read from the fitted curve at half-maximal effect", "settings": "HEK293-DRD2 cAMP HTRF, agonist mode, 30 min; activation: at 92.4 µM (top of the series) unless noted", "how_it_was_run": "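cAMP accumulation in DRD2-HEK293 cells measured by HTRF after 1 h detection; compounds added 10 min before NKH477 (200nM […]) forskolin-analogue stimulation, 30 min at room temperature, with Ro20-1724 present at 0.1 mM final.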"}}, "note": "Several values for one entry are separate records, joined by “and”; a condition that tells them apart may be missing. A call without a number means that no potency is given here. Identical values can stand only once. The shares of active, inactive and inconclusive entries below differ from those in the screen. For some of these results: Where the call is inconclusive, the potency comes from a doubtful curve fit. Activity calls are given as the source filed them. Unless noted, calls follow the shape of the full dose curve.", "data": [{"compound": "c1ccc2cnccc2c1", "values": [{"measurement": "Potency", "setting": "[1]", "result": "inactive"}]}, {"compound": "CC12CCC(CC1=O)C2(C)C", "note": "(stereo unspecified)", "values": [{"measurement": "Potency", "setting": "[2]", "result": "inactive"}, {"measurement": "Potency", "setting": "[3]", "result": "inconclusive: 6 µM [inhibitor, partial curve]"}, {"measurement": "Potency", "setting": "[4]", "result": "inactive"}]}, {"compound": "CNc1ccccc1", "values": [{"measurement": "Potency", "setting": "[1]", "result": "inactive"}, {"measurement": "Potency", "setting": "[3]", "result": "inactive"}]}, {"compound": "Cc1cccc(Cl)c1", "values": [{"measurement": "Potency", "setting": "[2]", "result": "inactive"}, {"measurement": "activation", "setting": "[3]", "result": "inconclusive: 18%"}, {"measurement": "activity change, negative = inhibition", "setting": "[4]", "result": "inconclusive: -81.9%"}]}, {"compound": "CC(=O)Nc1ccc(N=Nc2cc(C)ccc2O)cc1", "values": [{"measurement": "Potency", "setting": "[1]", "result": "inactive"}]}, {"compound": "O=C(Cl)c1ccccc1[N+](=O)[O-]", "values": [{"measurement": "Potency", "setting": "[2]", "result": "inactive"}, {"measurement": "activation", "setting": "[3]", "result": "inconclusive: -25.1%"}, {"measurement": "Potency", "setting": "[5]", "result": "inactive"}]}, {"compound": "CCn1ccnc1CC1COc2ccccc2O1", "note": "(stereo unspecified)", "values": [{"measurement": "Potency", "setting": "[2]", "result": "inactive"}, {"measurement": "Potency", "setting": "[3]", "result": "inconclusive: 0.298 µM [inhibitor, single point]"}, {"measurement": "Potency", "setting": "[5]", "result": "inconclusive: 21.1 µM"}]}, {"compound": "O=C(O)c1cc(=O)c2ccccc2o1", "values": [{"measurement": "Potency", "setting": "[2]", "result": "inactive"}, {"measurement": "Potency", "setting": "[3]", "result": "inactive"}, {"measurement": "Potency", "setting": "[4]", "result": "inactive"}]}, {"compound": "Cc1occc1SSc1ccoc1C", "values": [{"measurement": "Potency", "setting": "[2]", "result": "inactive"}, {"measurement": "Potency", "setting": "[3]", "result": "inconclusive: 15.4 µM [inhibitor, full curve, poor fit]"}, {"measurement": "Potency", "setting": "[4]", "result": "inconclusive: 0.243 µM [inhibitor, single point]"}]}, {"compound": "S=C([S-])NCCNC(=S)[S-].[Mn+2]", "values": [{"measurement": "Potency", "setting": "[2]", "result": "inconclusive: 54.5 µM [activator, partial curve, poor fit]"}, {"measurement": "Potency", "setting": "[4]", "result": "inconclusive: 68.6 µM [inhibitor]"}]}, {"compound": "O=C(O)CCCCCCCCCCC(=O)O", "values": [{"measurement": "activity change, negative = inhibition", "setting": "[2]", "result": "inconclusive: 2.41% and inconclusive: 10.9%"}, {"measurement": "Potency", "setting": "[4]", "result": "inconclusive: 68.6 µM [inhibitor, partial curve, poor fit]"}]}, {"compound": "Cc1ncc([N+](=O)[O-])n1CCO", "values": [{"measurement": "activity change, negative = inhibition", "setting": "[1]", "result": "inconclusive: 0.259%"}, {"measurement": "activation", "setting": "[3]", "result": "inconclusive: 15.4%"}]}, {"compound": "CC(C)(C)CCCCCCOC(=O)c1ccccc1C(=O)OCCCCCCC(C)(C)C", "values": [{"measurement": "Potency", "setting": "[1]", "result": "inactive"}]}, {"compound": "O=S(=O)(O)c1cc(O)c(O)c(S(=O)(=O)O)c1", "values": [{"measurement": "Potency", "setting": "[2]", "result": "inactive"}, {"measurement": "Potency", "setting": "[5]", "result": "inactive"}]}, {"compound": "CCCn1cc[n+](C)c1C", "values": [{"measurement": "Potency", "setting": "[1]", "result": "inactive"}]}, {"compound": "CN(C(=O)c1c(O)c2ccccc2n(C)c1=O)c1ccccc1", "values": [{"measurement": "Potency", "setting": "[1]", "result": "inactive"}]}, {"compound": "OCc1ccccc1", "values": [{"measurement": "Potency", "setting": "[2]", "result": "inactive"}, {"measurement": "activation", "setting": "[3]", "result": "inconclusive: -26.5%"}, {"measurement": "activation", "setting": "[5]", "result": "inconclusive: 14.2%"}, {"measurement": "Potency", "setting": "[4]", "result": "inactive"}]}, {"compound": "O=P(O)(O)O", "values": [{"measurement": "activity change, negative = inhibition", "setting": "[2]", "result": "inconclusive: -4.74%"}, {"measurement": "Potency", "setting": "[3]", "result": "inactive and inconclusive: 48.6 µM [activator, partial curve, poor fit]"}, {"measurement": "Potency", "setting": "[4]", "result": "inconclusive: 78.1 µM [inhibitor, single point]"}]}, {"compound": "CCC(C)C(C)=O", "note": "(stereo unspecified)", "values": [{"measurement": "Potency", "setting": "[1]", "result": "inactive"}]}, {"compound": "CCOC(=O)CC(C)C", "values": [{"measurement": "Potency", "setting": "[2]", "result": "inactive"}, {"measurement": "activation", "setting": "[3]", "result": "inconclusive: 10.5%"}, {"measurement": "Potency", "setting": "[4]", "result": "inactive"}]}, {"compound": "CC(=C(CCOC(=O)C(C)C)SSC(CCOC(=O)C(C)C)=C(C)N(C=O)Cc1cnc(C)nc1N)N(C=O)Cc1cnc(C)nc1N", "values": [{"measurement": "Potency", "setting": "[2]", "result": "inactive"}, {"measurement": "activation", "setting": "[3]", "result": "inconclusive: 17.9% [at 42.5 µM]"}, {"measurement": "activity change, negative = inhibition", "setting": "[4]", "result": "inconclusive: -14.2% [at 42.5 µM]"}]}, {"compound": "CC(C)(Oc1ccc(Cl)cc1)C(=O)OCCCOC(=O)C(C)(C)Oc1ccc(Cl)cc1", "values": [{"measurement": "activity change, negative = inhibition", "setting": "[2]", "result": "inconclusive: -5.31% [at 42.4 µM]"}, {"measurement": "Potency", "setting": "[3]", "result": "inactive"}, {"measurement": "Potency", "setting": "[4]", "result": "inconclusive: 33.5 µM [inhibitor, single point]"}]}, {"compound": "c1ccc([C@H]2CN3CCSC3=N2)cc1", "values": [{"measurement": "Potency", "setting": "[2]", "result": "inactive"}, {"measurement": "activation", "setting": "[3]", "result": "inconclusive: 1.33% [at 42.5 µM]"}, {"measurement": "Potency", "setting": "[4]", "result": "inactive"}]}, {"compound": "CN(C)CCOC(c1ccccc1)c1ccccc1", "values": [{"measurement": "Potency", "setting": "[1]", "result": "inactive"}]}, {"compound": "C1COCO1", "values": [{"measurement": "Potency", "setting": "[2]", "result": "inactive"}, {"measurement": "Potency", "setting": "[4]", "result": "inactive"}]}, {"compound": "CCCCOC(=O)/C=C\\C(=O)OCCCC", "values": [{"measurement": "Potency", "setting": "[1]", "result": "inactive"}]}, {"compound": "CC(CSC(=O)c1ccccc1)C(=O)N1C[C@@H](Sc2ccccc2)C[C@H]1C(=O)O", "note": "(stereo partly specified)", "values": [{"measurement": "activity change, negative = inhibition", "setting": "[2]", "result": "inconclusive: -0.0328% [at 18.9 µM]"}, {"measurement": "Potency", "setting": "[3]", "result": "inconclusive: 1.3 µM [inhibitor, full curve, poor fit]"}, {"measurement": "activation", "setting": "[5]", "result": "inconclusive: -29.2% [at 19 µM]"}, {"measurement": "Potency", "setting": "[4]", "result": "inconclusive: 16.4 µM [inhibitor, single point]"}]}, {"compound": "CN1C(C(=O)Nc2ccccn2)=C(O)c2sccc2S1(=O)=O", "values": [{"measurement": "Potency", "setting": "[1]", "result": "inactive"}]}, {"compound": "C=C1CC[C@H]2C[C@@H]1C2(C)C", "values": [{"measurement": "Potency", "setting": "[1]", "result": "inactive"}]}, {"compound": "CCOC(=O)OCC", "values": [{"measurement": "activity change, negative = inhibition", "setting": "[1]", "result": "inconclusive: 4.9%"}, {"measurement": "activation", "setting": "[3]", "result": "inconclusive: -19.8%"}]}, {"compound": "O=C(O)[C@@H]1[C@H]2C[C@H]3c4[nH]c5ccccc5c4CCN3C[C@@H]2CC[C@@H]1O", "values": [{"measurement": "Potency", "setting": "[2]", "result": "inactive"}, {"measurement": "activity change, negative = inhibition", "setting": "[4]", "result": "inconclusive: -21.3% [at 42.5 µM]"}]}, {"compound": "COc1ccc(C)cc1[N+](=O)[O-]", "values": [{"measurement": "activity change, negative = inhibition", "setting": "[2]", "result": "inconclusive: 13.6%"}, {"measurement": "activation", "setting": "[3]", "result": "inconclusive: 8.08%"}, {"measurement": "activity change, negative = inhibition", "setting": "[4]", "result": "inconclusive: 3.38%"}]}, {"compound": "CCCCN(CCCC)CCC(O)c1cc2c(Cl)cc(Cl)cc2c2cc(C(F)(F)F)ccc12", "note": "(stereo unspecified)", "values": [{"measurement": "activity change, negative = inhibition", "setting": "[2]", "result": "inconclusive: 14.4% [at 42.4 µM]"}, {"measurement": "Potency", "setting": "[3]", "result": "inactive"}, {"measurement": "Potency", "setting": "[4]", "result": "inactive"}]}, {"compound": "CCOC(=O)C(Br)c1ccccc1", "note": "(stereo unspecified)", "values": [{"measurement": "activity change, negative = inhibition", "setting": "[2]", "result": "inconclusive: 0.243%"}, {"measurement": "Potency", "setting": "[3]", "result": "inactive"}, {"measurement": "Potency", "setting": "[4]", "result": "inactive"}]}]}
